Data taken from the supplement of paper PMC7661543.
± gives the standard deviation of the averaged measurements. The effect of the compound repeats well; differences between the knockouts mostly do not.

Test system: MDA-MB-231
Test: relative cell number vs DMSO control (72 h) (% of DMSO); higher = less growth inhibition (more cells)
Protocol: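 QMAP-Seq: a pool of 5 breast cancer cell lines (ZR-75-1, SKBR3, HCC-38, MDA-MB-231, BT-20), each carrying 12 doxycycline-inducible Cas9 sgRNA perturbations (11 knockouts plus non-targeting sgNT), was treated with compounds for 72 h at four 10-fold doses (10 nM-10 uM or 1 nM-1 uM range). Barcodes were amplified and sequenced, and cell number was interpolated from 293T spike-in standard curves. The result is expressed as % of the median of DMSO wells. Two biological replicates.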

CC(C)[C@]12O[C@H]1[C@@H]1O[C@]13[C@]1(O[C@H]1C[C@H]1C4=C(CC[C@@]13C)C(=O)OC4)[C@@H]2O [Triptolide]
Details | relative cell number
sgRNA knockout: sgATF3, 1 nM | 99.8 ± 4.9
sgRNA knockout: sgATF3, 10 nM | 54.5 ± 4.6
sgRNA knockout: sgATF3, 100 nM | 21.6 ± 0.42
sgRNA knockout: sgATF3, 1000 nM | 11.6 ± 0.54
sgRNA knockout: sgATF4, 1 nM | 91.3 ± 2.7
sgRNA knockout: sgATF4, 10 nM | 68.8 ± 24
sgRNA knockout: sgATF4, 100 nM | 24.9 ± 15
sgRNA knockout: sgATF4, 1000 nM | 18.7 ± 2.8
sgRNA knockout: sgATF6, 1 nM | 90.7 ± 1.6
sgRNA knockout: sgATF6, 10 nM | 59.7 ± 1.2
sgRNA knockout: sgATF6, 100 nM | 16 ± 3.9
sgRNA knockout: sgATF6, 1000 nM | 17.4 ± 0.64
sgRNA knockout: sgATG7, 1 nM | 86.7 ± 29
sgRNA knockout: sgATG7, 10 nM | 49 ± 4.8
sgRNA knockout: sgATG7, 100 nM | 16.5 ± 1.8
sgRNA knockout: sgATG7, 1000 nM | 15.9 ± 1.4
sgRNA knockout: sgERN1, 1 nM | 115 ± 37
sgRNA knockout: sgERN1, 10 nM | 45.6 ± 5.5
sgRNA knockout: sgERN1, 100 nM | 16.4 ± 1.5
sgRNA knockout: sgERN1, 1000 nM | 15.06 ± 0.13
sgRNA knockout: sgHSF1, 1 nM | 86.4 ± 5.1
sgRNA knockout: sgHSF1, 10 nM | 43.9 ± 0.82
sgRNA knockout: sgHSF1, 100 nM | 18.9 ± 5.4
sgRNA knockout: sgHSF1, 1000 nM | 10.5 ± 3.9
sgRNA knockout: sgHSF2, 1 nM | 81.1 ± 5.8
sgRNA knockout: sgHSF2, 10 nM | 48.4 ± 4.2
sgRNA knockout: sgHSF2, 100 nM | 15.2 ± 2.9
sgRNA knockout: sgHSF2, 1000 nM | 13.3 ± 4
sgRNA knockout: sgKEAP1, 1 nM | 82.3 ± 25
sgRNA knockout: sgKEAP1, 10 nM | 44.7 ± 3
sgRNA knockout: sgKEAP1, 100 nM | 18.2 ± 4.5
sgRNA knockout: sgKEAP1, 1000 nM | 19.4 ± 1.6
sgRNA knockout: sgNFE2L2, 1 nM | 102 ± 10
sgRNA knockout: sgNFE2L2, 10 nM | 38.8 ± 0.86
sgRNA knockout: sgNFE2L2, 100 nM | 20.3 ± 9.5
sgRNA knockout: sgNFE2L2, 1000 nM | 15.1 ± 3.2
sgRNA knockout: sgSLC35F2, 1 nM | 86.1 ± 33
sgRNA knockout: sgSLC35F2, 10 nM | 49.3 ± 5.9
sgRNA knockout: sgSLC35F2, 100 nM | 21 ± 10
sgRNA knockout: sgSLC35F2, 1000 nM | 13.7 ± 5
sgRNA knockout: sgXBP1, 1 nM | 77.9 ± 7.9
sgRNA knockout: sgXBP1, 10 nM | 52.9 ± 3.4
sgRNA knockout: sgXBP1, 100 nM | 14.6 ± 3.1
sgRNA knockout: sgXBP1, 1000 nM | 13.1 ± 2.5

Cc1onc(-c2ccccc2)c1-c1ccc(S(N)(=O)=O)cc1 [Valdecoxib]
Details | relative cell number
sgRNA knockout: sgATF3, 10 nM | 118 ± 5.9
sgRNA knockout: sgATF3, 100 nM | 89.2 ± 4.5
sgRNA knockout: sgATF3, 1000 nM | 124 ± 8.7
sgRNA knockout: sgATF3, 10000 nM | 97.9 ± 5.6
sgRNA knockout: sgATF4, 10 nM | 102 ± 18
sgRNA knockout: sgATF4, 100 nM | 85.7 ± 6.6
sgRNA knockout: sgATF4, 1000 nM | 87.1 ± 11
sgRNA knockout: sgATF4, 10000 nM | 64.2 ± 2.2
sgRNA knockout: sgATF6, 10 nM | 102 ± 1.3
sgRNA knockout: sgATF6, 100 nM | 97.3 ± 57
sgRNA knockout: sgATF6, 1000 nM | 101 ± 27
sgRNA knockout: sgATF6, 10000 nM | 89.9 ± 26
sgRNA knockout: sgATG7, 10 nM | 99.5 ± 3
sgRNA knockout: sgATG7, 100 nM | 101 ± 3.1
sgRNA knockout: sgATG7, 1000 nM | 104 ± 5.9
sgRNA knockout: sgATG7, 10000 nM | 103 ± 2.3
sgRNA knockout: sgERN1, 10 nM | 75.9 ± 2.4
sgRNA knockout: sgERN1, 100 nM | 108 ± 17
sgRNA knockout: sgERN1, 1000 nM | 111 ± 6
sgRNA knockout: sgERN1, 10000 nM | 99.4 ± 45
sgRNA knockout: sgHSF1, 10 nM | 88.1 ± 5.7
sgRNA knockout: sgHSF1, 100 nM | 93.7 ± 5.6
sgRNA knockout: sgHSF1, 1000 nM | 112 ± 19
sgRNA knockout: sgHSF1, 10000 nM | 108 ± 8
sgRNA knockout: sgHSF2, 10 nM | 132 ± 33
sgRNA knockout: sgHSF2, 100 nM | 95.4 ± 11
sgRNA knockout: sgHSF2, 1000 nM | 103 ± 2.8
sgRNA knockout: sgHSF2, 10000 nM | 81.9 ± 5.6
sgRNA knockout: sgKEAP1, 10 nM | 109 ± 13
sgRNA knockout: sgKEAP1, 100 nM | 98.6 ± 27
sgRNA knockout: sgKEAP1, 1000 nM | 97.56 ± 0.26
sgRNA knockout: sgKEAP1, 10000 nM | 99.2 ± 11
sgRNA knockout: sgNFE2L2, 10 nM | 103 ± 24
sgRNA knockout: sgNFE2L2, 100 nM | 106 ± 19
sgRNA knockout: sgNFE2L2, 1000 nM | 99 ± 30
sgRNA knockout: sgNFE2L2, 10000 nM | 96.3 ± 17
sgRNA knockout: sgSLC35F2, 10 nM | 79.4 ± 25
sgRNA knockout: sgSLC35F2, 100 nM | 93.6 ± 8.5
sgRNA knockout: sgSLC35F2, 1000 nM | 103 ± 21
sgRNA knockout: sgSLC35F2, 10000 nM | 97.21 ± 0.14
sgRNA knockout: sgXBP1, 10 nM | 104 ± 63
sgRNA knockout: sgXBP1, 100 nM | 96.8 ± 1.1
sgRNA knockout: sgXBP1, 1000 nM | 96 ± 23
sgRNA knockout: sgXBP1, 10000 nM | 92 ± 14

Cc1cnc(Nc2ccc(OCCN3CCCC3)cc2)nc1Nc1cccc(S(=O)(=O)NC(C)(C)C)c1
Details | relative cell number
sgRNA knockout: sgATF3, 10 nM | 95.9 ± 60
sgRNA knockout: sgATF3, 100 nM | 93.2 ± 6.5
sgRNA knockout: sgATF3, 1000 nM | 65.2 ± 9.7
sgRNA knockout: sgATF3, 10000 nM | 10.3 ± 1.6
sgRNA knockout: sgATF4, 10 nM | 104 ± 37
sgRNA knockout: sgATF4, 100 nM | 83.6 ± 11
sgRNA knockout: sgATF4, 1000 nM | 88.3 ± 32
sgRNA knockout: sgATF4, 10000 nM | 8.71 ± 3.9
sgRNA knockout: sgATF6, 10 nM | 117 ± 49
sgRNA knockout: sgATF6, 100 nM | 95.4 ± 7.5
sgRNA knockout: sgATF6, 1000 nM | 63.9 ± 9.3
sgRNA knockout: sgATF6, 10000 nM | 9.25 ± 2.1
sgRNA knockout: sgATG7, 10 nM | 94.3 ± 40
sgRNA knockout: sgATG7, 100 nM | 92.3 ± 14
sgRNA knockout: sgATG7, 1000 nM | 57.5 ± 0.69
sgRNA knockout: sgATG7, 10000 nM | 4.67 ± 0.62
sgRNA knockout: sgERN1, 10 nM | 97.3 ± 16
sgRNA knockout: sgERN1, 100 nM | 76.3 ± 20
sgRNA knockout: sgERN1, 1000 nM | 55.7 ± 10
sgRNA knockout: sgERN1, 10000 nM | 7.17 ± 0.98
sgRNA knockout: sgHSF1, 10 nM | 102 ± 1.6
sgRNA knockout: sgHSF1, 100 nM | 72.9 ± 16
sgRNA knockout: sgHSF1, 1000 nM | 57.8 ± 9.6
sgRNA knockout: sgHSF1, 10000 nM | 8.75 ± 5.3
sgRNA knockout: sgHSF2, 10 nM | 115 ± 26
sgRNA knockout: sgHSF2, 100 nM | 107 ± 6
sgRNA knockout: sgHSF2, 1000 nM | 65.2 ± 9.7
sgRNA knockout: sgHSF2, 10000 nM | 6.8 ± 1.3
sgRNA knockout: sgKEAP1, 10 nM | 108 ± 25
sgRNA knockout: sgKEAP1, 100 nM | 96 ± 29
sgRNA knockout: sgKEAP1, 1000 nM | 70.4 ± 38
sgRNA knockout: sgKEAP1, 10000 nM | 8.88 ± 0.4
sgRNA knockout: sgNFE2L2, 10 nM | 111 ± 18
sgRNA knockout: sgNFE2L2, 100 nM | 117 ± 3.5
sgRNA knockout: sgNFE2L2, 1000 nM | 70.6 ± 6.6
sgRNA knockout: sgNFE2L2, 10000 nM | 9.14 ± 3.2
sgRNA knockout: sgSLC35F2, 10 nM | 96.7 ± 24
sgRNA knockout: sgSLC35F2, 100 nM | 85 ± 3.9
sgRNA knockout: sgSLC35F2, 1000 nM | 65.7 ± 3.4
sgRNA knockout: sgSLC35F2, 10000 nM | 5.11 ± 1.3
sgRNA knockout: sgXBP1, 10 nM | 96.6 ± 3.4
sgRNA knockout: sgXBP1, 100 nM | 106 ± 15
sgRNA knockout: sgXBP1, 1000 nM | 69.2 ± 4.7
sgRNA knockout: sgXBP1, 10000 nM | 7.51 ± 1.8
